For 40 targets, log2 fold change results are on record in the supplement of paper PMC12819154, “High-throughput peptide-centric local stability assay extends protein–ligand identification to membrane proteins, tissues and bacteria” (Nature Structural & Molecular Biology, 2025).

The chains behind the UniProt entries cited, without tags or fusion partners. Where a name states a change or a piece, a line headed by the entry shows the natural chain unless it says otherwise.
UniProt P17097: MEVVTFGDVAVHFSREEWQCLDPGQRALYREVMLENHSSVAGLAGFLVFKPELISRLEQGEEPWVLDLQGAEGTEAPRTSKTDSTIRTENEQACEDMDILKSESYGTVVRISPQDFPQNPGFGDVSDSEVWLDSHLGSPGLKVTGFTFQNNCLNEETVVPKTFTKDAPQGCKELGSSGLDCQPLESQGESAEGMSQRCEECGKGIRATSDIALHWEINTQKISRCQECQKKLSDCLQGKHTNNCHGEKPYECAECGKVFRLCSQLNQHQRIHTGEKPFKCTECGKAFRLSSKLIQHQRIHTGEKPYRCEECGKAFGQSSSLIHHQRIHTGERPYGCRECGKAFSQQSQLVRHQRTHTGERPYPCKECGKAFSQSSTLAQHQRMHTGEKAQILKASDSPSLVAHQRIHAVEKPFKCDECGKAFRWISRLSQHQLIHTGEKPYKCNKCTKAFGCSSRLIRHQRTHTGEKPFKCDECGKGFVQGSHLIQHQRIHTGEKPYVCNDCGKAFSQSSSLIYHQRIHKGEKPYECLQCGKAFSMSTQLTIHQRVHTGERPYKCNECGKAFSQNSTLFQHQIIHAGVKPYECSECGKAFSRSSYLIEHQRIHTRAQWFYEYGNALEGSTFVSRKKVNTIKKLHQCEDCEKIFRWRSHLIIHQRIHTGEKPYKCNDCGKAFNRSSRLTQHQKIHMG
UniProt P22033: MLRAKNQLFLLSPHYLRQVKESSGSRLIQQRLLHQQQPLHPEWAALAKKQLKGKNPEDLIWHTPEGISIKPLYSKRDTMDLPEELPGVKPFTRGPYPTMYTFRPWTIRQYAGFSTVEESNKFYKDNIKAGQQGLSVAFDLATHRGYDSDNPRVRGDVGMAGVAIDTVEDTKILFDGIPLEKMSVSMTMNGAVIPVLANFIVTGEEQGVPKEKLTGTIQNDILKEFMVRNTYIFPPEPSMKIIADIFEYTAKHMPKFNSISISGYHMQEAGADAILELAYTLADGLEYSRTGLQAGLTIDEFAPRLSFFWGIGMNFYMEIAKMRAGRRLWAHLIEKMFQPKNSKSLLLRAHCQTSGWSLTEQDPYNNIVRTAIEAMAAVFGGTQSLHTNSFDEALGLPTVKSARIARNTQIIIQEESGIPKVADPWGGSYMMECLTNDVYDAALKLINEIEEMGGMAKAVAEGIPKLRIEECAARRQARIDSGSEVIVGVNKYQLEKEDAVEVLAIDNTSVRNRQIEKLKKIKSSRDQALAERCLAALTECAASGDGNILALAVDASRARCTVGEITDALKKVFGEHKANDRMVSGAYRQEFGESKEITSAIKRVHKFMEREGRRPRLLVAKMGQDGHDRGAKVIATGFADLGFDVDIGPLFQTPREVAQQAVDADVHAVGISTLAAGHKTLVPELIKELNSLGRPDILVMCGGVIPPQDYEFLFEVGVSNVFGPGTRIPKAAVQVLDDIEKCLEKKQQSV
UniProt P15170, whole entry: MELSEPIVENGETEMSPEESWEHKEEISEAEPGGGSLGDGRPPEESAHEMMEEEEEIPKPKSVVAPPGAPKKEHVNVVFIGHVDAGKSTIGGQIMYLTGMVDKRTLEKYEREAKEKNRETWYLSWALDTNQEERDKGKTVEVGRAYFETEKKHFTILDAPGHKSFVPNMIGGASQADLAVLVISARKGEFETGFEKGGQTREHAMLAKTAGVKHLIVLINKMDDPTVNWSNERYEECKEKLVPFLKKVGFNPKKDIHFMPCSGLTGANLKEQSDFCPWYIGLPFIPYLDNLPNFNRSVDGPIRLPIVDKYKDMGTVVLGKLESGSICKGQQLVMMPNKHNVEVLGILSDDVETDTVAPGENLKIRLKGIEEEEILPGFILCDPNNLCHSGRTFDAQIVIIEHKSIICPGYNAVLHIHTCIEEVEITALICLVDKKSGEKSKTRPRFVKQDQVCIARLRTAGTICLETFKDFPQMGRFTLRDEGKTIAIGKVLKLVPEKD
UniProt P16150: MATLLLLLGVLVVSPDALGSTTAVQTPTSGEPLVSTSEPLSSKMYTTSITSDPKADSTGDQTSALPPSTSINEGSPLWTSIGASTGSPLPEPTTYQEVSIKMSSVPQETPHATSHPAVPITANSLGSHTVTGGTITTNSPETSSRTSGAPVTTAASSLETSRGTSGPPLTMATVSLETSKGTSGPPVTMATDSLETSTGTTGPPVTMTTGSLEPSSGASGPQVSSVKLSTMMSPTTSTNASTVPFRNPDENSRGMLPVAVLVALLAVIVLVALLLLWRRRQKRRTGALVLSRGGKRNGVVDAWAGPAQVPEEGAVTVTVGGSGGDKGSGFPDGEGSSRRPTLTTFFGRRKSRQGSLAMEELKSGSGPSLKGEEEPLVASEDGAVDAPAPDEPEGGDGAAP
UniProt P27816: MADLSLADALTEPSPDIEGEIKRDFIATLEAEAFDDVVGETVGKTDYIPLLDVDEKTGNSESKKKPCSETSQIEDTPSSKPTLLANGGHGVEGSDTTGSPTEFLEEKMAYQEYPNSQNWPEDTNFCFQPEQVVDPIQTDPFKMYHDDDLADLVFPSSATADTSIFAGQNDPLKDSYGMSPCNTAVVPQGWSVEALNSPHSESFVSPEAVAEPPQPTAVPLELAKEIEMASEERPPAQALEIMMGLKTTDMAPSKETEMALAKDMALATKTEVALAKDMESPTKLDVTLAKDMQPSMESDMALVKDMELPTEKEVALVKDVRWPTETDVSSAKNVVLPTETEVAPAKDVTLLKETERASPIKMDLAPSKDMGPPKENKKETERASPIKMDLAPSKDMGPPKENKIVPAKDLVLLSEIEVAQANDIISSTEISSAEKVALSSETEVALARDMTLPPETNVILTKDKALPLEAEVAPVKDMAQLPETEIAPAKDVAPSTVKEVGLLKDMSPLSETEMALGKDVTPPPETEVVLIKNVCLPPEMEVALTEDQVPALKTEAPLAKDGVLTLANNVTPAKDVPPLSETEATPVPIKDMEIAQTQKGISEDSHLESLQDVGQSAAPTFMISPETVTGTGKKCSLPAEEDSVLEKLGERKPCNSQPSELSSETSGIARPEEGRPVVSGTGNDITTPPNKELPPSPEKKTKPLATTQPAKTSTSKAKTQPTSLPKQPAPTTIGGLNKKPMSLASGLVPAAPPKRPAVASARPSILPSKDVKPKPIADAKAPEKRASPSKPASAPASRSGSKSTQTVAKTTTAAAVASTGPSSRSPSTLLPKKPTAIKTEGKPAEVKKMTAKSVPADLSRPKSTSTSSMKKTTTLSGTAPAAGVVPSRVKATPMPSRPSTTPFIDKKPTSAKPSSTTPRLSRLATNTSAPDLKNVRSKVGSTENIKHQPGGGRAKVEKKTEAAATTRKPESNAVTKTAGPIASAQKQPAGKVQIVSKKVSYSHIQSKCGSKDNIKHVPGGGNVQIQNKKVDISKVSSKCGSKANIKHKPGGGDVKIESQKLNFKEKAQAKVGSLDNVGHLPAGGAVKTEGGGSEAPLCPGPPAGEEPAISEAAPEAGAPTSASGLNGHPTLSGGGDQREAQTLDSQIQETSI
UniProt P17081: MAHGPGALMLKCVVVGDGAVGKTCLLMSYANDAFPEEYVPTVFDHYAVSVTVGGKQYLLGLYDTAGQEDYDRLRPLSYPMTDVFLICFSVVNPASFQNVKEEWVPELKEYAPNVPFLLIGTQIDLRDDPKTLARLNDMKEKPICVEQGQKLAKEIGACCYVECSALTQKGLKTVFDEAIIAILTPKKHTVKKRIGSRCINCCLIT
UniProt P26639: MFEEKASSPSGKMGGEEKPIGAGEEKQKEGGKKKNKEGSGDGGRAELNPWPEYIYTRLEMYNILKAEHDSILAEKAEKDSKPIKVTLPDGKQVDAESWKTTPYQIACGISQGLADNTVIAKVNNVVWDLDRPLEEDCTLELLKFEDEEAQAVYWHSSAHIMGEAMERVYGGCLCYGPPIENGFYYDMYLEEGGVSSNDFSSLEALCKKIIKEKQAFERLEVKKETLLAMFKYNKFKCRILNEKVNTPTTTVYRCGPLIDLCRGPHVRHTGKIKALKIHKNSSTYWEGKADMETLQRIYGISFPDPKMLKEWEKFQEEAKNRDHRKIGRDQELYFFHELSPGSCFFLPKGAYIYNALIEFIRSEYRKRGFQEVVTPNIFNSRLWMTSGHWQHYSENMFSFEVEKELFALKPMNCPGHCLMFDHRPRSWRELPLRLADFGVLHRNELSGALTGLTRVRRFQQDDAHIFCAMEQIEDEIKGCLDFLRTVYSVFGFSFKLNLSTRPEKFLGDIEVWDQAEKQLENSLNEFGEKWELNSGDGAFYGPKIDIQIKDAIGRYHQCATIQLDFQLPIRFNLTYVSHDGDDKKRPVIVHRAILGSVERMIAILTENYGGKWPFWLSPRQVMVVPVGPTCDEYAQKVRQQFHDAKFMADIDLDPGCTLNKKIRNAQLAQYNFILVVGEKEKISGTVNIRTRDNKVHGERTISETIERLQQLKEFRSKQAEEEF
UniProt P19174: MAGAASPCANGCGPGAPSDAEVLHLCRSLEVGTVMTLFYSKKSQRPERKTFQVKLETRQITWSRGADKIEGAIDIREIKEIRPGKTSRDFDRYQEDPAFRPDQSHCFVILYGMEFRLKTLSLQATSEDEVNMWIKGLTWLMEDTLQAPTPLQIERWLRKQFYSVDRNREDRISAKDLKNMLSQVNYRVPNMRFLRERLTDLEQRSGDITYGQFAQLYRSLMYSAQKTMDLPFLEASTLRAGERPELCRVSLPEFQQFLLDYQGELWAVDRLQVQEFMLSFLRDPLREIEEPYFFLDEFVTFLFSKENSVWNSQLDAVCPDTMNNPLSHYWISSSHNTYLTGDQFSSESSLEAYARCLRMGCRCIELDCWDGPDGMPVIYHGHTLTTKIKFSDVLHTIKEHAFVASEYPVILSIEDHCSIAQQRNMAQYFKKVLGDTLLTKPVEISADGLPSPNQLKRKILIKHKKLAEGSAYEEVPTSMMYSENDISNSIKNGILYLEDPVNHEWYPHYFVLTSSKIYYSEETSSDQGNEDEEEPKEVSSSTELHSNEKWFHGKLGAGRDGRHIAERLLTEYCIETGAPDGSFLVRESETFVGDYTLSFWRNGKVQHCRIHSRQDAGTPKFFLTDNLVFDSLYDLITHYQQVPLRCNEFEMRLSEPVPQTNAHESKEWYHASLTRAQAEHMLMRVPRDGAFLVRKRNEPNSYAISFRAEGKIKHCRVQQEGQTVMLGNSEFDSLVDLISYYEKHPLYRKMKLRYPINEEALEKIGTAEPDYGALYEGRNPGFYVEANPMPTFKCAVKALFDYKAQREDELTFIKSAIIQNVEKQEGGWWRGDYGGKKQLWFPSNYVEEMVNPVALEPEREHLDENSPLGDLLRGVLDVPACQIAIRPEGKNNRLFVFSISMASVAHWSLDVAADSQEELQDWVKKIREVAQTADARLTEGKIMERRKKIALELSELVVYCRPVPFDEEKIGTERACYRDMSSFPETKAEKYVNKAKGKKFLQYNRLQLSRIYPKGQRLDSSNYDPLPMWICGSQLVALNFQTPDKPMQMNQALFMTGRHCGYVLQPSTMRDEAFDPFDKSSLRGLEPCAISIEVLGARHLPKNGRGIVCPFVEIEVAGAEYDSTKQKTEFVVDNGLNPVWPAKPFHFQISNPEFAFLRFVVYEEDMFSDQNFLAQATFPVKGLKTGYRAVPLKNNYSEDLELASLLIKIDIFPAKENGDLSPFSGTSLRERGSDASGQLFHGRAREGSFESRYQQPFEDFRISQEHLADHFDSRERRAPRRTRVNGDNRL
UniProt P14854, whole entry: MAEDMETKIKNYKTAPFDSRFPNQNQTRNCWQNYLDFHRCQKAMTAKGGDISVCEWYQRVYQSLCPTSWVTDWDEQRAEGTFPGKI
UniProt P23528, whole entry: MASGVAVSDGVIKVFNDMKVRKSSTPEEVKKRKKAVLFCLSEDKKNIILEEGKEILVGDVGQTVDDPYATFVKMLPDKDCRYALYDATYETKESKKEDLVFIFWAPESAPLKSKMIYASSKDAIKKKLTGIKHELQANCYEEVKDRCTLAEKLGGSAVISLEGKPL
UniProt P22307: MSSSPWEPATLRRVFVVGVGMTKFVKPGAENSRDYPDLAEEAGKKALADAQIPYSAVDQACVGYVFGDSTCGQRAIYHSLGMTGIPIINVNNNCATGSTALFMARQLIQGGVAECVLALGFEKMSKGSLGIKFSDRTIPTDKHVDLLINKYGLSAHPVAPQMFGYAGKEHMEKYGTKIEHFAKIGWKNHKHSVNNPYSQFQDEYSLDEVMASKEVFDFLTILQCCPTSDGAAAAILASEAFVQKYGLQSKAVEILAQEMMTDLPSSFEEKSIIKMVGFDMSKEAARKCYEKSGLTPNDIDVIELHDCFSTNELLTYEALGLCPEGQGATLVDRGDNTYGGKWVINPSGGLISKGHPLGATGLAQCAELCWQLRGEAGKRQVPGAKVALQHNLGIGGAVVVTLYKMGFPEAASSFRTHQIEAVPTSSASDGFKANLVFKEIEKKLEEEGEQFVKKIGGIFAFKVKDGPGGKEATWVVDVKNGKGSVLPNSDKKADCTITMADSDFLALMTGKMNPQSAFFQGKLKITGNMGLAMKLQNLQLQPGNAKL

This is one part of the list. Most values lie at the level of the controls, where differences are scatter.

Compound in the assay: CN[C@@H]1C[C@H]2O[C@@](C)([C@@H]1OC)n1c3ccccc3c3c4c(c5c6ccccc6n2c5c31)C(=O)NC4 [staurosporine]
The assay is described as follows: log2 fold change of tryptic peptide abundance, ligand vs vehicle (limited proteolysis) (log2 ratio); higher = more trypsin-susceptible (destabilized). The note with it: ligand concentration: 20 uM; sample: K562 cleared lysate; digestion: 4 min, 22 C (HT-PELSA RT4min, Orbitrap Astral).
Take “TCEA1 (peptide sequence: LLDGPSTEKDLDEKK, peptide start residue: 76) (UniProt P23193)”: the log2 fold change was -0.264.

As to “NFKB1 (peptide sequence: SDDKNTVNLFGK, peptide start residue: 449) (UniProt P19838)”, the log2 fold change was -0.404. For “NCK1 (peptide sequence: TGFVPSNYVERK, peptide start residue: 48) (UniProt P16333)”, the log2 fold change is -0.158. Consider “UniProt P17097 (peptide sequence: AFSQSSTLAQHQR, peptide start residue: 370)”, for which the log2 fold change was 0.208.

Turning to “SDHB (peptide sequence: IKNEVDSTLTFR, peptide start residue: 79) (UniProt P21912)”, the log2 fold change was -0.593. As for “UniProt P22033 (peptide sequence: MGQDGHDR, peptide start residue: 622)”, the log2 fold change turned out to be 0.377. On to “FOSL1 (peptide sequence: ALGPPPGVR, peptide start residue: 85) (UniProt P15407)”, for which the log2 fold change is -0.175. As to “CPT2 (peptide sequence: SIVPTMHYQDSLPR, peptide start residue: 38) (UniProt P23786)”, the log2 fold change came to 0.305. With “CCNE1 (peptide sequence: GSPLPVLSWANREEVWK, peptide start residue: 102) (UniProt P24864)”, the log2 fold change is -0.377. As for “GSPT1 (peptide sequence: AYFETEKK, peptide start residue: 145) (UniProt P15170)”, the log2 fold change was 0.0833.

Turning to “BRD2 (peptide sequence: AGADEDDKGPR, peptide start residue: 567) (UniProt P25440)”, the log2 fold change stood at 0.649. For the target “HSP90B1 (peptide sequence: AQAYQTGKDISTNYYASQKK, peptide start residue: 664) (UniProt P14625)”, the log2 fold change is -0.756. Turning to “NF1 (peptide sequence: KVAQLAVINSLEK, peptide start residue: 206) (UniProt P21359)”, the log2 fold change was -0.73. For the target “RPL17 (peptide sequence: EQIVPKPEEEVAQKK, peptide start residue: 154) (UniProt P18621)”, the log2 fold change was -0.142. As to “GLB1 (peptide sequence: MFEIDYSR, peptide start residue: 31) (UniProt P16278)”, the log2 fold change was 0.0787.

Consider “TRIM27 (peptide sequence: HLANVTQLVK, peptide start residue: 70) (UniProt P14373)”, for which the log2 fold change turned out to be 0.308.

Turning to “UniProt P18615 (peptide sequence: GAFSPFGNIIDLSMDPPR, peptide start residue: 278)”, the log2 fold change is -0.148. On to “COX5A (peptide sequence: ILEVVKDKAGPHK, peptide start residue: 108) (UniProt P20674)”, for which the log2 fold change was 0.452. For “UniProt P21108 (peptide sequence: NCIIVSPDAGGAK, peptide start residue: 164)” the value was 0.228; for “NDUFV2 (peptide sequence: KPVGKYHIQVCTTTPCMLR, peptide start residue: 125) (UniProt P19404)”, 0.589; for “SPN (peptide sequence: QGSLAMEELK, peptide start residue: 353) (UniProt P16150)”, 0.0922. As to “LIG1 (peptide sequence: LMLPPPPLTASGVFSK, peptide start residue: 392) (UniProt P18858)”, the log2 fold change is -0.153. Regarding “MAP4 (peptide sequence: TTDMAPSK, peptide start residue: 247) (UniProt P27816)”, the log2 fold change is -0.444. As for “RHOQ (peptide sequence: CVVVGDGAVGK, peptide start residue: 6) (UniProt P17081)”, the log2 fold change came out at 0.0581.

For “HRC (peptide sequence: QSHQDEETGHGQR, peptide start residue: 443) (UniProt P23327)”, the log2 fold change came to 0.763. For “ATF2 (peptide sequence: FTNEDHLAVHK, peptide start residue: 36) (UniProt P15336)” the value was 0.26; for “LMO2 (peptide sequence: AYEMTMR, peptide start residue: 103) (UniProt P25791)”, -0.196; for “UniProt P26639 (peptide sequence: ADMETLQR, peptide start residue: 289)”, 0.346. For “PLCG1 (peptide sequence: NMLSQVNYR, peptide start residue: 179) (UniProt P19174)” the value was 0.19; for “PLS3 (peptide sequence: ALENDPDCR, peptide start residue: 133) (UniProt P13797)”, 0.217; for “GLUL (peptide sequence: AYDPKGGLDNAR, peptide start residue: 287) (UniProt P15104)”, 0.432. “COX6B1 (peptide sequence: AEGTFPGKI, peptide start residue: 78) (UniProt P14854)”: the log2 fold change is -0.119.

Consider “UniProt P24844 (peptide sequence: ELLTTMGDR, peptide start residue: 125)”, for which the log2 fold change is -0.103. With “ZNF22 (peptide sequence: SFFQSSNLIQHR, peptide start residue: 91) (UniProt P17026)”, the log2 fold change was -0.114.

For the target “RAC2 (peptide sequence: LDLRDDKDTIEK, peptide start residue: 117) (UniProt P15153)”, the log2 fold change worked out at 0.715. The result for “ZNF24 (peptide sequence: TENGALAPK, peptide start residue: 195) (UniProt P17028)” reads 0.369. For “ELK1 (peptide sequence: NKTNMNYDKLSR, peptide start residue: 51) (UniProt P19419)” the value was -1.2; for “CFL1 (peptide sequence: NIILEEGK, peptide start residue: 46) (UniProt P23528)”, -0.277; for “SCP2 (peptide sequence: EATWVVDVK, peptide start residue: 471) (UniProt P22307)”, -0.403.

Turning to “PSMB6 (peptide sequence: FAVATLPPA, peptide start residue: 231) (UniProt P28072)”, the log2 fold change is -0.101.
